# Source: the supplement of paper PMC8728848
# This is one part of the list.
# B1: Protein L(A-C2) (Finegoldia magna), Q51912 (protein)
# chain: ADEPIDLEKLEEKRDKENVGNLPKFDNEVKDGSENPMAKYPDFDDEASTRFETENNEFEEKKVVSDNFFDQSEHPFVENKEETPETPETDSEEEVTIKANLIFANGSTQTAEFKGTFEKATSEAYAYADTLKKDNGEYTVDVADKGYTLNIKFAGKEKTPEEPKEEVTIKANLIYADGKTQTAEFKGTFEEATAEAYRYADALKKDNGEYTVDVADKGYTLNIKFAGKEKTPEEPKEEVTIKANLIYADGKTQTAEFKGTFEEATAEAYRYADLLAKENGKYTVDVADKGYTLNIKFAGKEKTPEEPKEEVTIKANLIYADGKTQTAEFKGTFAEATAEAYRYADLLAKENGKYTADLEDGGYTINIRFAGKKVDEKPEEKEQVTIKENIYFEDGTVQTATFKGTFAEATAEAYRYADLLSKEHGKYTADLEDGGYTINIRFAGKEEPEETPEKPEVQDGYASYEEAEAAAKEALKNDDVNKSYTIRQGADGRYYYVLSPVEAEEEKPEAQNGYATYEEAEAAAKKALENDPINKSYSIRQGADGRYYYVLSPVEAE
# Legend:
# Assay in all cases: glycan array binding signal (z-score within array); higher = stronger binding
# Settings in all cases: glycan notation: IUPAC condensed, linker removed
# [1] = target: GlcNAc(b1-2)Gal(b1-3)GalNAc
# Procedure, shortened: (§1)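 The binding signal is a Z-score computed within each array. Data were drawn from 3228 arrays in the Consortium for Functional Glycomics database, restricted to those with a known protein sequence. Scores were averaged over arrays of the same protein sequence at different concentrations or buffers, and over linkers, and negative values can be taken as non-binding.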
# [2] = target: GlcNAc(b1-2)Man(a1-3)[GlcNAc(b1-2)Man(a1-6)]Man(b1-4)GlcNAc(b1-4)GlcNAc
# Procedure, shortened: as §1
# [3] = target: GlcNAc(b1-2)Man(a1-3)[GlcNAc(b1-2)Man(a1-6)]Man(b1-4)GlcNAc(b1-4)[Fuc(a1-6)]GlcNAc
# Procedure, shortened: as §1
# [4] = target: GlcNAc(b1-2)Man(a1-3)[GlcNAc(b1-4)][GlcNAc(b1-2)Man(a1-6)]Man(b1-4)GlcNAc(b1-4)GlcNAc
# Procedure, shortened: as §1
# [5] = target: GlcNAc(b1-2)Man(a1-3)[GlcNAc(b1-4)][GlcNAc(b1-2)Man(a1-6)]Man(b1-4)GlcNAc(b1-4)[Fuc(a1-6)]GlcNAc
# Procedure, shortened: as §1
# [6] = target: GlcNAc(b1-2)[GlcNAc(b1-4)]Man(a1-3)[GlcNAc(b1-2)Man(a1-6)]Man(b1-4)GlcNAc(b1-4)GlcNAc
# Procedure, shortened: as §1
# [7] = target: GlcNAc(b1-2)[GlcNAc(b1-4)]Man(a1-3)[GlcNAc(b1-4)][GlcNAc(b1-2)Man(a1-6)]Man(b1-4)GlcNAc(b1-4)GlcNAc
# Procedure, shortened: as §1
# [8] = target: GlcNAc(b1-2)[GlcNAc(b1-4)]Man(a1-3)[GlcNAc(b1-4)][GlcNAc(b1-2)[GlcNAc(b1-6)]Man(a1-6)]Man(b1-4)GlcNAc(b1-4)GlcNAc
# Procedure, shortened: as §1
# [9] = target: GlcNAc(b1-2)[GlcNAc(b1-4)]Man(a1-3)[GlcNAc(b1-4)][GlcNAc(b1-2)[GlcNAc(b1-6)]Man(a1-6)]Man(b1-4)GlcNAc(b1-4)[Fuc(a1-6)]GlcNAc
# Procedure, shortened: as §1
# [10] = target: GlcNAc(b1-2)[GlcNAc(b1-6)]Man(a1-6)[GlcNAc(b1-2)Man(a1-3)]Man(b1-4)GlcNAc(b1-4)GlcNAc
# Procedure, shortened: as §1
# [11] = target: GlcNAc(b1-2)[GlcNAc(b1-6)]Man(a1-6)[GlcNAc(b1-2)Man(a1-3)]Man(b1-4)GlcNAc(b1-4)[Fuc(a1-6)]GlcNAc
# Procedure, shortened: as §1
# [12] = target: GlcNAc(b1-2)[GlcNAc(b1-6)]Man(a1-6)[GlcNAc(b1-4)][GlcNAc(b1-2)Man(a1-3)]Man(b1-4)GlcNAc(b1-4)GlcNAc
# Procedure, shortened: as §1
# GlcNAc(b1-3)Fuc = target: GlcNAc(b1-3)Fuc
# Procedure, shortened: as §1
# GlcNAc(b1-3)Gal = target: GlcNAc(b1-3)Gal
# Procedure, shortened: as §1
# [13] = target: GlcNAc(b1-3)Gal(b1-3)GalNAc
# Procedure, shortened: as §1
# GlcNAc(b1-3)Gal(b1-4)Glc = target: GlcNAc(b1-3)Gal(b1-4)Glc
# Procedure, shortened: as §1
# [14] = target: GlcNAc(b1-3)Gal(b1-4)GlcNAc
# Procedure, shortened: as §1
# [15] = target: GlcNAc(b1-3)Gal(b1-4)GlcNAc(b1-2)Man(a1-3)[GlcNAc(b1-3)Gal(b1-4)GlcNAc(b1-2)Man(a1-6)]Man(b1-4)GlcNAc(b1-4)GlcNAc
# Procedure, shortened: as §1
# [16] = target: GlcNAc(b1-3)Gal(b1-4)GlcNAc(b1-2)Man(a1-3)[GlcNAc(b1-3)Gal(b1-4)GlcNAc(b1-2)Man(a1-6)]Man(b1-4)GlcNAc(b1-4)[Fuc(a1-6)]GlcNAc
# Procedure, shortened: as §1
# [17] = target: GlcNAc(b1-3)Gal(b1-4)GlcNAc(b1-2)[GlcNAc(b1-3)Gal(b1-4)GlcNAc(b1-6)]Man(a1-6)[GlcNAc(b1-3)Gal(b1-4)GlcNAc(b1-2)Man(a1-3)]Man(b1-4)GlcNAc(b1-4)GlcNAc
# Procedure, shortened: as §1
# [18] = target: GlcNAc(b1-3)Gal(b1-4)GlcNAc(b1-3)Gal(b1-4)GlcNAc
# Procedure, shortened: as §1
# [19] = target: GlcNAc(b1-3)Gal(b1-4)GlcNAc(b1-3)Gal(b1-4)GlcNAc(b1-2)Man(a1-3)[GlcNAc(b1-3)Gal(b1-4)GlcNAc(b1-3)Gal(b1-4)GlcNAc(b1-2)Man(a1-6)]Man(b1-4)GlcNAc(b1-4)GlcNAc
# Procedure, shortened: as §1
# [20] = target: GlcNAc(b1-3)Gal(b1-4)GlcNAc(b1-3)Gal(b1-4)GlcNAc(b1-2)Man(a1-3)[GlcNAc(b1-3)Gal(b1-4)GlcNAc(b1-3)Gal(b1-4)GlcNAc(b1-2)Man(a1-6)]Man(b1-4)GlcNAc(b1-4)[Fuc(a1-6)]GlcNAc
# Procedure, shortened: as §1
# [21] = target: GlcNAc(b1-3)Gal(b1-4)GlcNAc(b1-3)Gal(b1-4)GlcNAc(b1-2)[GlcNAc(b1-3)Gal(b1-4)GlcNAc(b1-3)Gal(b1-4)GlcNAc(b1-6)]Man(a1-6)[GlcNAc(b1-3)Gal(b1-4)GlcNAc(b1-3)Gal(b1-4)GlcNAc(b1-2)Man(a1-3)]Man(b1-4)GlcNAc(b1-4)[Fuc(a1-6)]GlcNAc
# Procedure, shortened: as §1
# [22] = target: GlcNAc(b1-3)Gal(b1-4)GlcNAc(b1-3)Gal(b1-4)GlcNAc(b1-3)Gal(b1-4)GlcNAc(b1-2)Man(a1-3)[GlcNAc(b1-3)Gal(b1-4)GlcNAc(b1-3)Gal(b1-4)GlcNAc(b1-3)Gal(b1-4)GlcNAc(b1-2)Man(a1-6)]Man(b1-4)GlcNAc(b1-4)GlcNAc
# Procedure, shortened: as §1
# [23] = target: GlcNAc(b1-3)Gal(b1-4)GlcNAc(b1-3)Gal(b1-4)GlcNAc(b1-3)Gal(b1-4)GlcNAc(b1-2)Man(a1-3)[GlcNAc(b1-3)Gal(b1-4)GlcNAc(b1-3)Gal(b1-4)GlcNAc(b1-3)Gal(b1-4)GlcNAc(b1-2)Man(a1-6)]Man(b1-4)GlcNAc(b1-4)[Fuc(a1-6)]GlcNAc
# Procedure, shortened: as §1
# [24] = target: GlcNAc(b1-3)Gal(b1-4)GlcNAc(b1-3)Gal(b1-4)GlcNAc(b1-3)Gal(b1-4)GlcNAc(b1-2)[GlcNAc(b1-3)Gal(b1-4)GlcNAc(b1-3)Gal(b1-4)GlcNAc(b1-3)Gal(b1-4)GlcNAc(b1-6)]Man(a1-6)[GlcNAc(b1-3)Gal(b1-4)GlcNAc(b1-3)Gal(b1-4)GlcNAc(b1-3)Gal(b1-4)GlcNAc(b1-2)Man(a1-3)]Man(b1-4)GlcNAc(b1-4)[Fuc(a1-6)]GlcNAc
# Procedure, shortened: as §1
# [25] = target: GlcNAc(b1-3)Gal(b1-4)GlcNAc(b1-3)Gal(b1-4)GlcNAc(b1-3)Gal(b1-4)GlcNAc(b1-3)Gal(b1-4)GlcNAc(b1-2)Man(a1-3)[GlcNAc(b1-3)Gal(b1-4)GlcNAc(b1-3)Gal(b1-4)GlcNAc(b1-3)Gal(b1-4)GlcNAc(b1-3)Gal(b1-4)GlcNAc(b1-2)Man(a1-6)]Man(b1-4)GlcNAc(b1-4)GlcNAc
# Procedure, shortened: as §1
# [26] = target: GlcNAc(b1-3)Gal(b1-4)GlcNAc(b1-3)Gal(b1-4)GlcNAc(b1-3)Gal(b1-4)GlcNAc(b1-3)Gal(b1-4)GlcNAc(b1-2)Man(a1-3)[GlcNAc(b1-3)Gal(b1-4)GlcNAc(b1-3)Gal(b1-4)GlcNAc(b1-3)Gal(b1-4)GlcNAc(b1-3)Gal(b1-4)GlcNAc(b1-2)Man(a1-6)]Man(b1-4)GlcNAc(b1-4)[Fuc(a1-6)]GlcNAc
# Procedure, shortened: as §1
# [27] = target: GlcNAc(b1-3)Gal(b1-4)GlcNAc(b1-3)Gal(b1-4)GlcNAc(b1-3)Gal(b1-4)GlcNAc(b1-3)Gal(b1-4)GlcNAc(b1-2)[GlcNAc(b1-3)Gal(b1-4)GlcNAc(b1-3)Gal(b1-4)GlcNAc(b1-3)Gal(b1-4)GlcNAc(b1-3)Gal(b1-4)GlcNAc(b1-6)]Man(a1-6)[GlcNAc(b1-3)Gal(b1-4)GlcNAc(b1-3)Gal(b1-4)GlcNAc(b1-3)Gal(b1-4)GlcNAc(b1-3)Gal(b1-4)GlcNAc(b1-2)Man(a1-3)]Man(b1-4)GlcNAc(b1-4)[Fuc(a1-6)]GlcNAc
# Procedure, shortened: as §1
binder,measurement,setting,value
B1,glycan array binding signal (z-score),[1],-0.741
same,glycan array binding signal (z-score),[2],-0.516
same,glycan array binding signal (z-score),[3],2.85
same,glycan array binding signal (z-score),[4],0.244
same,glycan array binding signal (z-score),[5],-0.153
same,glycan array binding signal (z-score),[6],0.686
same,glycan array binding signal (z-score),[7],-0.355
same,glycan array binding signal (z-score),[8],0.025
same,glycan array binding signal (z-score),[9],-0.478
same,glycan array binding signal (z-score),[10],-0.785
same,glycan array binding signal (z-score),[11],-0.081
same,glycan array binding signal (z-score),[12],-0.53
same,glycan array binding signal (z-score),GlcNAc(b1-3)Fuc,-0.812
same,glycan array binding signal (z-score),GlcNAc(b1-3)Gal,-0.986
same,glycan array binding signal (z-score),[13],0.092
same,glycan array binding signal (z-score),GlcNAc(b1-3)Gal(b1-4)Glc,-0.921
same,glycan array binding signal (z-score),[14],-0.623
same,glycan array binding signal (z-score),[15],-0.191
same,glycan array binding signal (z-score),[16],0.001
same,glycan array binding signal (z-score),[17],0.107
same,glycan array binding signal (z-score),[18],-0.561
same,glycan array binding signal (z-score),[19],1.91
same,glycan array binding signal (z-score),[20],2.42
same,glycan array binding signal (z-score),[21],0.33
same,glycan array binding signal (z-score),[22],0.676
same,glycan array binding signal (z-score),[23],0.203
same,glycan array binding signal (z-score),[24],0.83
same,glycan array binding signal (z-score),[25],0.576
same,glycan array binding signal (z-score),[26],1.02
same,glycan array binding signal (z-score),[27],1.26

# Looked up one by one from above, 2 records:
binder,measurement,setting,value
B1,glycan array binding signal (z-score),[23],0.203
same,glycan array binding signal (z-score),[4],0.244
